# From the supplement of paper PMC11438910
# This is one part of the list. Most of these values are background signal.
# B1: 4-99.5 (protein)
# chain 1: QVQLQESGPGLVKPSETLSLTCAVSGYSISSGYYWGWIRQPPGKGLEYIGYISGSSGSPYYNPSLKSRVTISKDTSKNQFSLKLSSATAADTAVYYCARRQVGIGFDYWGQGVLVTVSS
# chain 2: QAAPTQPPSVSGSPGQSVTISCTGTSSDIGYYNAVSWYQQHPGKAPKLMIYEVSKRPSGVSDRFSGSKSGNTASLTISGLQAEDEADYYCSSYAGSNTYIFGAGTRLTVL
# Tests used:
# Experiment in all cases: fluorescence intensity of antibody binding to polysaccharide-coupled beads; higher = stronger binding
# [1] = target: pneumococcal polysaccharide C-Poly-1
# Protocol: (§1)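 Recombinant rhesus-murine chimeric IgG1 antibodies were tested against antigen-coupled MagPlex beads in a 96-plex Luminex direct immunoassay (dLIA). The beads carried pneumococcal capsular polysaccharides of 93 serotypes plus C-polysaccharides. Antibody was added at 0.1–12,500 ng/mL for 1 h, then PE anti-mouse IgG, and net MFI was read on a Bio-Plex 3D. Only the rhesus variable regions are printed; constant regions are murine IgG1/kappa/lambda, and the signal peptide is MGWSCIILFLVATATGVHS.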
# [2] = target: pneumococcal polysaccharide C-Poly-2
# Protocol: as §1
# [3] = target: pneumococcal polysaccharide Pn1
# Protocol: as §1
# [4] = target: pneumococcal polysaccharide Pn10A
# Protocol: as §1
# [5] = target: pneumococcal polysaccharide Pn10B
# Protocol: as §1
# [6] = target: pneumococcal polysaccharide Pn10C
# Protocol: as §1
# [7] = target: pneumococcal polysaccharide Pn10F
# Protocol: as §1
# [8] = target: pneumococcal polysaccharide Pn11A
# Protocol: as §1
# [9] = target: pneumococcal polysaccharide Pn11B
# Protocol: as §1
# [10] = target: pneumococcal polysaccharide Pn11C
# Protocol: as §1
# [11] = target: pneumococcal polysaccharide Pn11D
# Protocol: as §1
# [12] = target: pneumococcal polysaccharide Pn11F
# Protocol: as §1
# [13] = antibody concentration 0.1 ng/mL
# [14] = antibody concentration 0.534724 ng/mL
# [15] = antibody concentration 2.8593 ng/mL
# [16] = antibody concentration 15.2894 ng/mL
# [17] = antibody concentration 81.7561 ng/mL
# [18] = antibody concentration 437.17 ng/mL
# [19] = antibody concentration 2337.65 ng/mL
# [20] = antibody concentration 12500 ng/mL
binder,measurement,setting,value
B1,fluorescence intensity,[1]; [13],27.5 MFI
same,fluorescence intensity,[1]; [14],28.8 MFI
same,fluorescence intensity,[1]; [15],28.5 MFI
same,fluorescence intensity,[1]; [16],27.5 MFI
same,fluorescence intensity,[1]; [17],25.2 MFI
same,fluorescence intensity,[1]; [18],26 MFI
same,fluorescence intensity,[1]; [19],31.2 MFI
same,fluorescence intensity,[1]; [20],62.2 MFI
same,fluorescence intensity,[2]; [13],21 MFI
same,fluorescence intensity,[2]; [14],20.5 MFI
same,fluorescence intensity,[2]; [15],21 MFI
same,fluorescence intensity,[2]; [16],21.2 MFI
same,fluorescence intensity,[2]; [17],22 MFI
same,fluorescence intensity,[2]; [18],23.2 MFI
same,fluorescence intensity,[2]; [19],27.2 MFI
same,fluorescence intensity,[2]; [20],50.5 MFI
same,fluorescence intensity,[3]; [13],14 MFI
same,fluorescence intensity,[3]; [14],14 MFI
same,fluorescence intensity,[3]; [15],14.5 MFI
same,fluorescence intensity,[3]; [16],14.5 MFI
same,fluorescence intensity,[3]; [17],14.5 MFI
same,fluorescence intensity,[3]; [18],14.5 MFI
same,fluorescence intensity,[3]; [19],16.8 MFI
same,fluorescence intensity,[3]; [20],24.5 MFI
same,fluorescence intensity,[4]; [13],26.5 MFI
same,fluorescence intensity,[4]; [14],26.5 MFI
same,fluorescence intensity,[4]; [15],27.2 MFI
same,fluorescence intensity,[4]; [16],28 MFI
same,fluorescence intensity,[4]; [17],28 MFI
same,fluorescence intensity,[4]; [18],25.5 MFI
same,fluorescence intensity,[4]; [19],27.8 MFI
same,fluorescence intensity,[4]; [20],30.5 MFI
same,fluorescence intensity,[5]; [13],25 MFI
same,fluorescence intensity,[5]; [14],26.2 MFI
same,fluorescence intensity,[5]; [15],24.5 MFI
same,fluorescence intensity,[5]; [16],23.5 MFI
same,fluorescence intensity,[5]; [17],26.8 MFI
same,fluorescence intensity,[5]; [18],24.5 MFI
same,fluorescence intensity,[5]; [19],27.5 MFI
same,fluorescence intensity,[5]; [20],30.5 MFI
same,fluorescence intensity,[6]; [13],17.2 MFI
same,fluorescence intensity,[6]; [14],18 MFI
same,fluorescence intensity,[6]; [15],17.5 MFI
same,fluorescence intensity,[6]; [16],16 MFI
same,fluorescence intensity,[6]; [17],18.8 MFI
same,fluorescence intensity,[6]; [18],16 MFI
same,fluorescence intensity,[6]; [19],18.5 MFI
same,fluorescence intensity,[6]; [20],22 MFI
same,fluorescence intensity,[7]; [13],18.8 MFI
same,fluorescence intensity,[7]; [14],20.8 MFI
same,fluorescence intensity,[7]; [15],19 MFI
same,fluorescence intensity,[7]; [16],22.2 MFI
same,fluorescence intensity,[7]; [17],20.5 MFI
same,fluorescence intensity,[7]; [18],21.5 MFI
same,fluorescence intensity,[7]; [19],21.5 MFI
same,fluorescence intensity,[7]; [20],24 MFI
same,fluorescence intensity,[8]; [13],29.8 MFI
same,fluorescence intensity,[8]; [14],30.2 MFI
same,fluorescence intensity,[8]; [15],31.5 MFI
same,fluorescence intensity,[8]; [16],30 MFI
same,fluorescence intensity,[8]; [17],30 MFI
same,fluorescence intensity,[8]; [18],33 MFI
same,fluorescence intensity,[8]; [19],32 MFI
same,fluorescence intensity,[8]; [20],40 MFI
same,fluorescence intensity,[9]; [13],28 MFI
same,fluorescence intensity,[9]; [14],25.5 MFI
same,fluorescence intensity,[9]; [15],28.2 MFI
same,fluorescence intensity,[9]; [16],26.2 MFI
same,fluorescence intensity,[9]; [17],29.2 MFI
same,fluorescence intensity,[9]; [18],28.2 MFI
same,fluorescence intensity,[9]; [19],31 MFI
same,fluorescence intensity,[9]; [20],35.5 MFI
same,fluorescence intensity,[10]; [13],22.5 MFI
same,fluorescence intensity,[10]; [14],23 MFI
same,fluorescence intensity,[10]; [15],21.5 MFI
same,fluorescence intensity,[10]; [16],22.8 MFI
same,fluorescence intensity,[10]; [17],22 MFI
same,fluorescence intensity,[10]; [18],23 MFI
same,fluorescence intensity,[10]; [19],27.5 MFI
same,fluorescence intensity,[10]; [20],74.8 MFI
same,fluorescence intensity,[11]; [13],26.5 MFI
same,fluorescence intensity,[11]; [14],23.5 MFI
same,fluorescence intensity,[11]; [15],23.5 MFI
same,fluorescence intensity,[11]; [16],22 MFI
same,fluorescence intensity,[11]; [17],22.2 MFI
same,fluorescence intensity,[11]; [18],26 MFI
same,fluorescence intensity,[11]; [19],26 MFI
same,fluorescence intensity,[11]; [20],48 MFI
same,fluorescence intensity,[12]; [13],14.5 MFI
same,fluorescence intensity,[12]; [14],12.5 MFI

# In a second layout: entries from further up.
binder	measurement	setting	value
B1	fluorescence intensity	[8]; [19]	32 MFI
same	fluorescence intensity	[8]; [20]	40 MFI
same	fluorescence intensity	[9]; [13]	28 MFI
same	fluorescence intensity	[9]; [14]	25.5 MFI
same	fluorescence intensity	[9]; [15]	28.2 MFI
same	fluorescence intensity	[9]; [16]	26.2 MFI
